Patent US20230226089A1, “METHODS AND COMPOSITIONS FOR TREATING DISEASES ASSOCIATED WITH SENESCENCE” (Atropos Therapeutics, Inc., priority 2019, published 2023)
Entries after “also recorded” stand apart in the source; their conditions may differ. For at least one compound, name, drawing or mass did not settle the structure.

Key:
Type in all cases: cell-based
[1] = tested on: LS8817^TetONFMDM2 cells; experiment: ATRX foci per cell in LS8817 TetON FLAG-MDM2 sarcoma cells
[2] = tested on: liposarcoma cell line (8107); experiment: SA-β-gal accumulation in liposarcoma cells primed with palbociclib; details: for induction of senescence (SA-β-gal accumulation): palbociclib 3 days, then indicated drug additional 5 days
[3] = tested on: H1975 cells; experiment: Nuclear ATRX foci by immunofluorescence in H1975 cells; details: 1 μM palbociclib 2-8 days vs cycling cells
[4] = tested on: H1975 cells; experiment: BrdU incorporation in palbociclib-treated lung carcinoma cells; details: 1 μM palbociclib up to 8 days vs untreated cycling cells

Compound	number of ATRX foci per cell ([1]; doxycycline + palbociclib 3 days, then 5 days doxycycline + palbociclib + 0.1 μM tipifarnib)	induction of senescence (SA-β-gal accumulation) [2]	number of ATRX foci per nuclei, senescent after growth arrest cells (SAGA3-3) ([1]; as Q3, then doxycycline removed and palbociclib alone 3 days)	number of ATRX foci per nuclei, quiescent cells (Q3) ([1]; doxycycline 2 days, then 10 μg/ml doxycycline + 0.2 μM palbociclib 3 days)	number of nuclear ATRX foci per cell [3]	cell cycle exit and senescence ([2]; palbociclib alone)	percentage of cells that incorporated BrdU (rate of proliferation) [4]
Cn1cncc1[C@@](N)(c1ccc(Cl)cc1)c1ccc2c(c1)c(-c1cccc(Cl)c1)cc(=O)n2C [tipifarnib]	increased number of ATRX foci per cell	able to induce senescence; also recorded: strong senescence-inducing activity					
CC(=O)Nc1cccc(-n2c(=O)n(C3CC3)c(=O)c3c(Nc4ccc(I)cc4F)n(C)c(=O)c(C)c32)c1 [trametinib]		able to induce senescence; also recorded: strong senescence-inducing activity					
CC(=O)c1c(C)c2cnc(Nc3ccc(N4CCNCC4)cn3)nc2n(C2CCCC2)c1=O [palbociclib]			increased	does not change	higher numbers of nuclear ATRX foci	induces cell cycle exit but not senescence	lower rate of proliferation
